The experiment concerns the target VDAC1 (mouse (endogenous in cardiomyocytes/heart of C57BL/6JOlaHsd mice)) (UniProt Q60932). Nature of the experiment: proximity ligation; in situ PLA in isolated adult mouse cardiomyocytes from SD and HFHSD mice at 16 weeks of diet; interactions per cell counted by confocal microscopy, as fold of SD.

Sequences of proteins named here, by UniProt entry; tags and fusion partners are left off. A change or cut given only in a name is not applied to a line headed by its entry. Residues count along the entry.
UniProt Q60932: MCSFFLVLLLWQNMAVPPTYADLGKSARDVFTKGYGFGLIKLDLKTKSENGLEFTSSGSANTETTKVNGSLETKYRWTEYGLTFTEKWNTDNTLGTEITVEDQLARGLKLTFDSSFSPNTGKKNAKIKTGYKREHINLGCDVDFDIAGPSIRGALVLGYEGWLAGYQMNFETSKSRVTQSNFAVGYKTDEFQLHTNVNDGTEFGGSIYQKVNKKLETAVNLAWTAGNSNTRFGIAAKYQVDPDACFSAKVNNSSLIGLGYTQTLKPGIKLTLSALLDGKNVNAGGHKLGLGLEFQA
UniProt Q3UMR5, residues 50-350: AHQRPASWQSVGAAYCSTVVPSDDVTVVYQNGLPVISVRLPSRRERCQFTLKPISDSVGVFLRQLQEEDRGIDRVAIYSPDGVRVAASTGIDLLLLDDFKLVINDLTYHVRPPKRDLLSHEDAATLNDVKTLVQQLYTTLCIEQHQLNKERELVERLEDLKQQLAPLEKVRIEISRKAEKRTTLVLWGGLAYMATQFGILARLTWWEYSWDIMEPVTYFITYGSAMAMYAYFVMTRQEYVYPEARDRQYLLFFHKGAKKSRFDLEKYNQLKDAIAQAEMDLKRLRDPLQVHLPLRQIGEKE

These are yes or no findings as the source states them, for the method shown. Binding seen in cells or lysates may run through a third protein. Binding can be weak; no strength is given.

With MCU (from UniProt Q3UMR5 50-350), the binding result was “binds”.
